This note sets out measurements from PMC7819943, “Rice protein-binding microarrays: a tool to detect cis-acting elements near promoter regions in rice”.

Amino acid sequences for entries named in this document (tags omitted).
UniProt Q0JBA9, entry or part of it: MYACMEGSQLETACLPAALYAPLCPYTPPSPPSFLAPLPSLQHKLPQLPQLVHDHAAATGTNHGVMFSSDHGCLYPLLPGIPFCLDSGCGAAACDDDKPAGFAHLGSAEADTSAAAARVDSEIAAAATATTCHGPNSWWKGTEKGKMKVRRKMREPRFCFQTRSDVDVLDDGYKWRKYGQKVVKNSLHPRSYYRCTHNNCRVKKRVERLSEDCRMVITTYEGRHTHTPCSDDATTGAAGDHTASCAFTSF

This is one part of the list.

The assay has as its target OsWRKY34 (Oryza sativa, UniProt Q0JBA9 1-250). Kind of assay: protein-binding microarray (RPBM); PBS, 2% BSA, 51.3 ng/ul salmon testes DNA, 50 uM zinc acetate, 200 nM TF, 25 C, 1 h; high values mean tight binding. The following applies: protein: recombinant; tags: N-terminal polyhistidine and DsRed monomer fusion (pET32a); label: CyDye5-dUTP incorporated in the synthesized complementary strand; 3' TTTTT single-stranded linker to array surface; dsDNA, one strand shown. An outline of the steps: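 The binding signal for each feature is its fluorescence intensity in arbitrary units. An Axon 4000B scanner was used to read a custom Agilent array that had been made double-stranded with Cy5-dUTP primer extension, blocked with 2% BSA, incubated at 25 °C for 1 h with 200 nM protein in PBS, 2% BSA, salmon testes DNA and 50 µM zinc acetate, and washed. The protein was an N-terminal polyhistidine–DsRed transcription factor fusion from E. coli BL21-CodonPlus, purified on Ni–NTA.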
In the case of “CGAACCCGACTCCCTCCACAATTCCGCTAGTCCGAGTCAACGGAGTCACCTAGTGCAG”, the binding signal was 8440 fluorescence intensity (a.u.).
The same measure for “GACCTCTGCCAGCGGTACAAACATTTCCGTTGTTCAATAACGGAGTCACCTAGTGCAG”: 8620 fluorescence intensity (a.u.); for “CAGGCAGAGTAGCTCTTTTTGTTTTTGTTGGGACCTAATACGGAGTCACCTAGTGCAG”: 12800 fluorescence intensity (a.u.); for “GTTTTGACCCCATATGTTTTTCCTTGACCCTGAACACTTCCGGAGTCACCTAGTGCAG”: 8960 fluorescence intensity (a.u.).
Regarding “CTACAAGCCTTCAACCACATGACTAGAGGTGTTTTTTTTTCGGAGTCACCTAGTGCAG”, the binding signal is 8170 fluorescence intensity (a.u.).
Consider “AATGCCATCTATTACTACTCCCTCGCACCTCATGTGTTTGCGGAGTCACCTAGTGCAG”, for which the binding signal is 10800 fluorescence intensity (a.u.).
With “ATAAGTCGTTTGACTCTTTTTTAATTAAACTTCTTTTAAGCGGAGTCACCTAGTGCAG” the figure was 8790 fluorescence intensity (a.u.); with “CGCCACCCACACTGCGCAAGCGCAACGCATATGCCAAATCCGGAGTCACCTAGTGCAG”, 9390 fluorescence intensity (a.u.).
With “CTCTCAGCCGGTCTATCAATTCCCCTTTCTGATACAATAACGGAGTCACCTAGTGCAG” the figure was 9570 fluorescence intensity (a.u.); with “ACCCCACCACTATCATCGTGCCTGCATCTGCATGTGTGTACGGAGTCACCTAGTGCAG”, 8240 fluorescence intensity (a.u.).
With “GGGCGACTTCTTTATCAACTACGAACCACAACCATTGCAGCGGAGTCACCTAGTGCAG” the figure was 8300 fluorescence intensity (a.u.).
“TACCACCACTGTTCGTTTCGTTTGTTGGGTTTCGGTCATCCGGAGTCACCTAGTGCAG”: the binding signal is 8360 fluorescence intensity (a.u.).
The same measure for “TGAGTCTTTCTTCTTTGCCATATGGACTTAATATATCTTCCGGAGTCACCTAGTGCAG”: 10800 fluorescence intensity (a.u.).
The same measure for “TATTTTCCAACATTTGGTTTTAAATGCTAACGATACAAATCGGAGTCACCTAGTGCAG”: 8140 fluorescence intensity (a.u.); for “TCAATTTTTATGTGCTTGTGTGGTACGTGTCGGTGGTCTACGGAGTCACCTAGTGCAG”: 10700 fluorescence intensity (a.u.); for “TCCATTTGTTTGCATCTTTTTCAGTCACACTCAACTTTATCGGAGTCACCTAGTGCAG”: 12100 fluorescence intensity (a.u.).
The same measure for “CTCAATTAATCATGCGCTAATAGCTCACATCGTTTTACGTCGGAGTCACCTAGTGCAG”: 10500 fluorescence intensity (a.u.); for “GTGTGTTTTTCTGCCATTTTTCGCCTTAGGTCTTCGCAATCGGAGTCACCTAGTGCAG”: 12300 fluorescence intensity (a.u.); for “CAATGCCCATCTTGCCCATCGAGCTATATCACCCGAGGTTCGGAGTCACCTAGTGCAG”: 8980 fluorescence intensity (a.u.).
Regarding “GTTGACCCGCAGTTCCCCTTTGTTTTCCACGTGTTTCTTCCGGAGTCACCTAGTGCAG”, the binding signal is 9740 fluorescence intensity (a.u.).
The same measure for “CAGTTTTCTCTTGGCACCAACGCGCGGTTATTTATGTTGACGGAGTCACCTAGTGCAG”: 8590 fluorescence intensity (a.u.); for “GCACGACGCATACATATCTCACGCGCCCTTTTTATCTGCTCGGAGTCACCTAGTGCAG”: 12900 fluorescence intensity (a.u.).
“CACATGTTATTTCTATCTCATTTTGCATGAAACATTTAATCGGAGTCACCTAGTGCAG”: the binding signal was 9840 fluorescence intensity (a.u.).
The same measure for “ACCCACGCCGCCGCCGCCGTCTCTTCCCTCCCTTCTCCGCCGGAGTCACCTAGTGCAG”: 8450 fluorescence intensity (a.u.); for “GGGAGAAGGTGATGGACACGTGCCTGAAGCGCGAGCGAGTCGGAGTCACCTAGTGCAG”: 8080 fluorescence intensity (a.u.).
The same measure for “TTGCCGCCACCTCTCCCTACAGCTGTTCGACTACGCCATTCGGAGTCACCTAGTGCAG”: 14900 fluorescence intensity (a.u.); for “TTGAATTTTCAGTTTTCTTGTGCGTGTTTCCTTGTCATTTCGGAGTCACCTAGTGCAG”: 9140 fluorescence intensity (a.u.).
On to “ATACTGTACACCGGCGCTTCTCACCGACAGATCGGGCCCACGGAGTCACCTAGTGCAG”, for which the binding signal was 9090 fluorescence intensity (a.u.).
The same measure for “ATCCAACTAACACACGCTGCTTCCTTTGCTTTCCTATTCTCGGAGTCACCTAGTGCAG”: 9920 fluorescence intensity (a.u.).
The same measure for “AATTTTAATTAATTATGTGCTAATGATTTTCTCCTTTTTGCGGAGTCACCTAGTGCAG”: 8240 fluorescence intensity (a.u.).
As for “TTCCTTTATCTTGCTTTATCTTGGTGGCCTTTTCTCCCTTCGGAGTCACCTAGTGCAG”, the binding signal is 8250 fluorescence intensity (a.u.).
On to “TCCTTGTGCGCCTGAGTATCCCTTGCTGCCAGATCACTTACGGAGTCACCTAGTGCAG”, for which the binding signal is 9120 fluorescence intensity (a.u.).
With “ATACTGATCGATCGTCTAGCTAGCTTCTTCTACCTCGCATCGGAGTCACCTAGTGCAG” the figure was 9170 fluorescence intensity (a.u.); with “TTCCCTCTGTTCAGACTATAAGTCGTTTTAATTTTGATTACGGAGTCACCTAGTGCAG”, 8260 fluorescence intensity (a.u.); with “GTTTTTCTCTTTTTTTTGCTTGATGATTTCCTTAGCTGATCGGAGTCACCTAGTGCAG”, 12900 fluorescence intensity (a.u.).
With “TTACAGGTATTAAACATATTTCACCTACGTATCTCTTCGCCGGAGTCACCTAGTGCAG” the figure was 9620 fluorescence intensity (a.u.); with “ACTTTTTTGGTAGCCATCCGTTATCTCGACACAGCTCCGACGGAGTCACCTAGTGCAG”, 9100 fluorescence intensity (a.u.).
With “AAAGTTATTTGGTTGGTTGTATTGGTTTAGCATGACTAGTCGGAGTCACCTAGTGCAG” the figure was 9390 fluorescence intensity (a.u.); with “GCCACCATCTCGCGCCACGCCTGCCCGTCGAGGACACCGACGGAGTCACCTAGTGCAG”, 10100 fluorescence intensity (a.u.).
For the sequence “CATTCGCCGCTTCACATCGCCATGGCCCTCAAAAGGTCGACGGAGTCACCTAGTGCAG”, the binding signal was 9630 fluorescence intensity (a.u.).
The same measure for “TCTCTGCTCTTAGTTTACTTCTGTCAGGTTGGAATATAATCGGAGTCACCTAGTGCAG”: 8540 fluorescence intensity (a.u.); for “AACTCGCTCGCTCTCTCGCTCGCTTGCTTGCACTCTCGCCCGGAGTCACCTAGTGCAG”: 8260 fluorescence intensity (a.u.).
